Measured values reported in PubChem BioAssay AID330 (DTP/NCI, 2004).
The list does not hold the whole screen: it gathers tests that were run many times, whatever their T/C, doses with no T/C, and many T/C values between a quarter and a half above the control. Other doses and runs of a compound stand elsewhere. T/C: endpoint of the treated group in % of that of the vehicle group. Some doses have a count of surviving animals in place of a T/C: the source files T/C as zero there, which appears to mark a toxic dose or a test without result, not a measured value. Some survivor counts are full or nearly so, which does not show that the dose was tolerated: the source hardly ever lists a survival T/C far under the control, and the zero likely stands for such cases as well. Survivors were counted at the toxicity check, usually on the fifth day, unless a day is given; later deaths do not show. Schedule codes are those of the source, read here as Q, the interval in days (D) or hours (H), X, the number of doses. Some entries hold several experiments; the results are listed from low to high. Where survival is the endpoint, this PubChem deposit counts one and a half times the control or more as active, and values a quarter to a half above the control carry no call in these data; other NCI protocols may use other cut-offs. Some T/C values are followed by the survivors on the day toxicity was checked, most often the fifth; without a count, all were alive then.

Test system: P388 leukemia ip, CD2F1 mice, survival T/C
Test: NCI In Vivo Anticancer Drug Screen. Data for tumor model P388 Leukemia (intraperitoneal) in CD2F1 (CDF1) mice
Details: T/C endpoint: median survival time, higher T/C = longer survival
[1] = dose: 50.0 mg/kg/injection, schedule: Q01DX009 (ip), vehicle: water
[2] = dose: 100.0 mg/kg/injection, schedule: Q01DX009 (ip), vehicle: water
[3] = dose: 200.0 mg/kg/injection, schedule: Q01DX005 (ip), vehicle: Klucel (hydroxypropylcellulose) (HPC)
[4] = dose: 100.0 mg/kg/injection, schedule: Q04DX003 (ip), vehicle: saline with Tween-80
[5] = dose: 200.0 mg/kg/injection, schedule: Q01DX005 (ip), vehicle: saline with Tween-80
[6] = dose: 50.0 mg/kg/injection, schedule: Q01DX005 (ip), vehicle: saline with Tween-80
[7] = dose: 50.0 mg/kg/injection, schedule: Q01DX005 (ip), vehicle: Klucel (hydroxypropylcellulose) (HPC)
[8] = dose: 100.0 mg/kg/injection, schedule: Q01DX005 (ip), vehicle: Klucel (hydroxypropylcellulose) (HPC)
[9] = dose: 240.0 mg/kg/injection, schedule: Q01DX005 (ip), vehicle: saline with Tween-80
[10] = dose: 400.0 mg/kg/injection, schedule: Q04DX003 (ip), vehicle: saline with Tween-80
[11] = dose: 200.0 mg/kg/injection, schedule: Q04DX003 (ip), vehicle: Klucel (hydroxypropylcellulose) (HPC)
[12] = dose: 100.0 mg/kg/injection, schedule: Q01DX001 (ip), vehicle: saline
[13] = dose: 100.0 mg/kg/injection, schedule: Q01DX009 (ip), vehicle: saline with Tween-80
[14] = dose: 200.0 mg/kg/injection, schedule: Q01DX009 (ip), vehicle: saline with Tween-80

With `Cc1cc(NCCCCCCCCNc2cc(C)nc3cc([N+](=O)[O-])ccc23)c2ccc([N+](=O)[O-])cc2n1` the survivor count [1] was 5 of 6, the survivor count [2] was 6 of 6 and the survivor count (dose: 200.0 mg/kg/injection, schedule: Q01DX009 (ip), vehicle: water) was 6 of 6.
`BrCC(Br)=C(Br)Br` was tested, and the survivor count (dose: 25.0 mg/kg/injection, schedule: Q01DX009 (ip), vehicle: saline with Tween-80) was 1 of 6.
For `C=C(C)C(=NC)NC(C)(C)C`, the survivor count [3] was 4 of 5.
For `CCc1c(O)c2c(n(C)c1=O)CC(C)(C)NC2=S`, the survivor count (dose: 240.0 mg/kg/injection, schedule: Q01DX005 (ip), vehicle: Klucel (hydroxypropylcellulose) (HPC)) was 5 of 6.
`CCCCCCCCCCCCCC(C)NCc1ccccc1` (stereo not given) was tested, and the survivor count [4] was 4 of 6.
With `Clc1ccc2c(NCCCCCCNc3ccnc4cc(Cl)ccc34)ccnc2c1` the survivor count [5] was 3 of 5.
With `CC(=O)[OH+]c1c(Br)cc(Br)cc1C(=O)[O-].CC(=O)[OH+]c1c(Br)cc(Br)cc1C(=O)[O-].[Cu+2]` the survivor count [6] was 3 of 6, the survivor count (dose: 100.0 mg/kg/injection, schedule: Q01DX005 (ip), vehicle: saline) was 0 of 6 and the survivor count (dose: 200.0 mg/kg/injection, schedule: Q01DX005 (ip), vehicle: saline) was 0 of 6.
With `[Br][Sn]([Br])([CH2][Sn]([Br])([c]1ccccc1)[c]1ccccc1)[c]1ccccc1` the T/C (dose: 25.0 mg/kg/injection, schedule: Q01DX005 (ip), vehicle: Klucel (hydroxypropylcellulose) (HPC)) was 139 % of control, the T/C [7] was 125 % of control and the survivor count [7] was 5 of 6. The T/C [8] was 125 % of control [5 of 6 alive], the survivor count [8] was 2 of 6 and the survivor count [3] was 5 of 6.
In the case of `COc1ccc(NC(=O)C#N)cc1`, the survivor count (dose: 30.0 mg/kg/injection, schedule: Q01DX005 (ip), vehicle: saline with Tween-80) is reported as 0 of 6, the survivor count (dose: 60.0 mg/kg/injection, schedule: Q01DX005 (ip), vehicle: saline with Tween-80) is reported as 0 of 6 and the survivor count (dose: 120.0 mg/kg/injection, schedule: Q01DX005 (ip), vehicle: saline with Tween-80) is reported as 0 of 6. The survivor count [9] was 0 of 6.
With `O=C(Nc1ccc(Cl)cc1)SC1=NCC(=O)N1c1ccccc1` the survivor count (dose: 1.56 mg/kg/injection, schedule: Q01DX005 (ip), vehicle: saline with Tween-80) was 5 of 5, the survivor count (dose: 12.5 mg/kg/injection, schedule: Q01DX005 (ip), vehicle: saline with Tween-80) was 6 of 6 and the survivor count [6] was 6 of 6.
In the case of `COc1cccc2c1C(=O)c1c(O)c3c(c(O)c1C2=O)C[C@@](O)(C(C)O)C[C@@H]3OC1CC(N(Cc2ccccc2)Cc2ccccc2)C(O)C(C)O1` (stereo not given in full), the T/C (dose: 3.13 mg/kg/injection, schedule: Q01DX009 (ip), vehicle: water) is reported as 146 % of control, the T/C (dose: 6.25 mg/kg/injection, schedule: Q04DX003 (ip), vehicle: water) is reported as 126 % of control and the T/C (dose: 9.4 mg/kg/injection, schedule: Q04DX003 (ip), vehicle: water) is reported as 126 % of control. For the same compound, the T/C (dose: 12.5 mg/kg/injection, schedule: Q04DX003 (ip), vehicle: water) was 138 % of control, the T/C (dose: 18.8 mg/kg/injection, schedule: Q04DX003 (ip), vehicle: water) was 141 % of control and the survivor count (dose: 25.0 mg/kg/injection, schedule: Q01DX009 (ip), vehicle: water) was 6 of 6. The survivor count [1] was 6 of 6, the survivor count [2] was 6 of 6 and the T/C (dose: 100.0 mg/kg/injection, schedule: Q04DX003 (ip), vehicle: water) was 129 % of control.
In the case of `N#CC[N+]1(Cc2ccccn2)CCCC1`, the survivor count (dose: 240.0 mg/kg/injection, schedule: Q01DX005 (ip), vehicle: saline) is reported as 1 of 6.
`O=C(CCl)SCc1ccccc1` was tested, and the survivor count [10] was 0 of 6.
`O=C(O)c1cc(Cl)ccc1-n1c(=O)[nH]c2ccccc2c1=O` was tested, and the survivor count (dose: 100.0 mg/kg/injection, schedule: Q04DX003 (ip), vehicle: Klucel (hydroxypropylcellulose) (HPC)) was 0 of 6, the survivor count [11] was 0 of 6 and the survivor count (dose: 400.0 mg/kg/injection, schedule: Q04DX003 (ip), vehicle: Klucel (hydroxypropylcellulose) (HPC)) was 0 of 6.
For `O=C(/N=C1\N=Nc2nc(C3(c4nc5n(c4O)/C(=N/C(=O)Nc4ccc(Cl)cc4)N=N5)CCCC3=O)c(O)n21)Nc1ccc(Cl)cc1` (stereo not given), the survivor count [9] was 6 of 6.
With `CCCCCCCCCCCCCCCC(=O)NCC(=O)NC1CC(OC2CC(O)(C(C)=O)Cc3c(O)c4c(c(O)c32)C(=O)c2c(OC)cccc2C4=O)OC(C)C1O` (stereo not given) the T/C (dose: 6.0 mg/kg/injection, schedule: Q01DX009 (ip), vehicle: other) was 131 % of control and the T/C (dose: 12.0 mg/kg/injection, schedule: Q01DX009 (ip), vehicle: other) was 135 % of control.
With `N#Cc1cccn1OCN1C(=O)c2ccccc2C1=O` the survivor count [11] was 5 of 6.
With `Cc1ccc2c(NCCCCCCCCNc3c4ccccc4nc4cc(C)ccc34)c3ccccc3nc2c1` the T/C (dose: 5.0 mg/kg/injection, schedule: Q01DX009 (ip), vehicle: water) was 148 % of control, the survivor count (dose: 10.0 mg/kg/injection, schedule: Q01DX009 (ip), vehicle: water) was 3 of 6 and the survivor count (dose: 20.0 mg/kg/injection, schedule: Q01DX009 (ip), vehicle: water) was 0 of 6. The survivor count (dose: 40.0 mg/kg/injection, schedule: Q01DX009 (ip), vehicle: water) was 0 of 6.
`CC(=O)Nc1nnc(-c2coc3ccccc3c2=O)s1` was tested, and the survivor count [9] was 6 of 6.
With `COC(=O)CC1(O)C=CC(=O)c2ccccc21` (stereo not given) the survivor count [5] was 3 of 6.
`O=C(c1ccc(O)cc1)c1ccc(O)cc1O` was tested, and the T/C [12] was 125 % of control and the survivor count [12] was 6 of 6.
`CS(=O)(=O)CCN(N=O)C(=N)N[N+](=O)[O-]` was tested, and the survivor count (dose: 50.0 mg/kg/injection, schedule: Q01DX009 (ip), vehicle: saline with Tween-80) was 6 of 6, the T/C [13] was 136 % of control [5 of 6 alive] and the survivor count [13] was 5 of 6. For the same compound, the T/C [4] was 140 and 145 % of control, the survivor count [14] was 1 of 6 and 2 of 6 and the T/C (dose: 200.0 mg/kg/injection, schedule: Q04DX003 (ip), vehicle: saline with Tween-80) was 131 % of control. For the same compound, the survivor count [10] was 1 of 6.
In the case of `Nc1nc(N)c2c(n1)NCN(OCCOc1ccc(Cl)cc1Cl)C2`, the survivor count [9] is reported as 3 of 6.
In the case of `CC(C)NC(=O)OCc1cc(-c2ccccc2)n(C)c1-c1ccccc1`, the survivor count (dose: 100.0 mg/kg/injection, schedule: Q01DX009 (ip), vehicle: distilled water + Tween-80) is reported as 5 of 6 and the survivor count (dose: 200.0 mg/kg/injection, schedule: Q01DX009 (ip), vehicle: distilled water + Tween-80) is reported as 0 of 6.
For `CC(=O)NN`, the survivor count [13] was 6 of 6 and the survivor count [14] was 1 of 6.
With `CC(=O)Oc1cc(OCCCc2ccc(F)cc2)cc2ccc3ccccc3c12` the survivor count (dose: 200.0 mg/kg/injection, schedule: Q04DX002 (ip), vehicle: saline with Tween-80) was 6 of 6.
`O=C1N2CCCC2(S)C(=O)N2CCCC12[S-].[Zn]` (stereo not given) was tested, and the survivor count (dose: 50.0 mg/kg/injection, schedule: Q01DX009 (ip), vehicle: saline) was 6 of 6, the survivor count (dose: 100.0 mg/kg/injection, schedule: Q01DX009 (ip), vehicle: saline) was 3 of 6 and the survivor count (dose: 200.0 mg/kg/injection, schedule: Q01DX009 (ip), vehicle: saline) was 0 of 6.
`Nc1nc(=O)nc2[nH]c3c4cccc5cccc(c3nc12)c54` (tested in a mixture with another compound) was tested, and the T/C [8] was 126 % of control, the survivor count [8] was 6 of 6 and the survivor count [3] was 1 of 6.
With `C[Si](C)(C)N=S=N[Si](C)(C)C` the survivor count [5] was 2 of 6.
